Laboratory results taken from publication PMC9542535.

Legend:
[1] = molecular target: T1, VnfA1 (vanadium nitrogenase activator VnfA), bacterial two-hybrid fusion (Azotobacter vinelandii) (UniProt P12627); assay: two-hybrid; bacterial adenylate cyclase two-hybrid (BACTH) in E. coli BTH101, T18 and T25 fusions, read out by β-galactosidase activity (Miller Units)
T1 sequence: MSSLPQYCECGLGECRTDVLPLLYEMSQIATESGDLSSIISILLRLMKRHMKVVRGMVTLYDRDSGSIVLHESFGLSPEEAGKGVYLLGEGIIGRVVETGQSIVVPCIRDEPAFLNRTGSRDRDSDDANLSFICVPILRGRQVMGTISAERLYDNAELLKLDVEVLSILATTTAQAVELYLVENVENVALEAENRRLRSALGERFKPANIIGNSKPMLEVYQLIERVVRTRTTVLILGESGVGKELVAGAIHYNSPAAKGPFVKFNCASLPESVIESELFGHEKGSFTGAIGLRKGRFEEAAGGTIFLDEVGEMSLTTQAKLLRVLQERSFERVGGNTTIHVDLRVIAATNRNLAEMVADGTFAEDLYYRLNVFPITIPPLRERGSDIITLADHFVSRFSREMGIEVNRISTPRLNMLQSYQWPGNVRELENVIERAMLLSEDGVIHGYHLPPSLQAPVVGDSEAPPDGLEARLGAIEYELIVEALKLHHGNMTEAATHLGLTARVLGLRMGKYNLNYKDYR

[2] = molecular target: T2, VnfA3, bacterial two-hybrid fusion (Azotobacter vinelandii) (UniProt C1DIZ6); assay: as above
T2 sequence: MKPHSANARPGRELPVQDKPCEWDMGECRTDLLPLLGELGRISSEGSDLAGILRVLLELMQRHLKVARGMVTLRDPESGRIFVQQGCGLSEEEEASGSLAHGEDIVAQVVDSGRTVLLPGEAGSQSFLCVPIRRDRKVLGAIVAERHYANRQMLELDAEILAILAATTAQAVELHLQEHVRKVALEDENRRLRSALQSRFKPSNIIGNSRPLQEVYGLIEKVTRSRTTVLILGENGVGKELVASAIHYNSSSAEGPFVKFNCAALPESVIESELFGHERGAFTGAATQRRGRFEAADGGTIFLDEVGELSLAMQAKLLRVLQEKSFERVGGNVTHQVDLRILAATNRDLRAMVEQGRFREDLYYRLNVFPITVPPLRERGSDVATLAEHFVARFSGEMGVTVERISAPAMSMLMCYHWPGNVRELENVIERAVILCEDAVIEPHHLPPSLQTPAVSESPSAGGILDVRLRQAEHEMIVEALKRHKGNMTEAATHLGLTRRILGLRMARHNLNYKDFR

binding [1]: binds | binding [2]: binds
Substance: VnfZ (Avin_47110), bacterial two-hybrid fusion (from UniProt C1DIZ7)

These are yes or no findings as the source states them, for the method shown. Binding can be weak; no strength is given. Sequences can lack the tags named with a protein.
